In publication PMC6995019 one finds binding data, which are given here for one substance.

These are yes or no findings as the source states them, for the method shown. A result given as binding can be weak or reduced; the word gives no strength.

This assay has as its target T1, CCCTC-binding factor (CTCF) (UniProt P49711).
T1 sequence: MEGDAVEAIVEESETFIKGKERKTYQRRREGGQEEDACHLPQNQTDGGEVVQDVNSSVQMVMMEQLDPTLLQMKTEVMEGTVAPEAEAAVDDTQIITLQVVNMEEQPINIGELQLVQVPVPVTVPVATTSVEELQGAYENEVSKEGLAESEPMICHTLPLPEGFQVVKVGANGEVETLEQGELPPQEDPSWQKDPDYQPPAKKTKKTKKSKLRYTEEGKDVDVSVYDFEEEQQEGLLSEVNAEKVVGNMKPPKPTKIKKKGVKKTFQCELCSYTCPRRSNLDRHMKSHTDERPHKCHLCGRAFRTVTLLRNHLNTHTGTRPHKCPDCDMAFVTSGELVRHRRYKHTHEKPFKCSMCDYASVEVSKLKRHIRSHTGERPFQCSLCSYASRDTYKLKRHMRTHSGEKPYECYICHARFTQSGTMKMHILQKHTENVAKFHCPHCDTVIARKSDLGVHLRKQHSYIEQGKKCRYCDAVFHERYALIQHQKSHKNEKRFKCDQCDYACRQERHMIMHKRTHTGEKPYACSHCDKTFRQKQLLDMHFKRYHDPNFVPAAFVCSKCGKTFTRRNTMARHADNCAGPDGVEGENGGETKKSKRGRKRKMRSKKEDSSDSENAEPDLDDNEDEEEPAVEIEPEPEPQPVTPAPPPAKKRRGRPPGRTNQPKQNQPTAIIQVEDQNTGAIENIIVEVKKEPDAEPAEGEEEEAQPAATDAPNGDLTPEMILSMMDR
The assay can be described thus: native gel or EMSA; EMSA with size-fractionated nuclear extracts. Background: A gel shift assay detects complexes by their altered migration in electrophoresis.

For BORIS (CTCFL), the binding entry was “binds”.
